The target in the test is T1, HA-tagged form of JMJD2C (UniProt Q9H3R0).
T1 sequence: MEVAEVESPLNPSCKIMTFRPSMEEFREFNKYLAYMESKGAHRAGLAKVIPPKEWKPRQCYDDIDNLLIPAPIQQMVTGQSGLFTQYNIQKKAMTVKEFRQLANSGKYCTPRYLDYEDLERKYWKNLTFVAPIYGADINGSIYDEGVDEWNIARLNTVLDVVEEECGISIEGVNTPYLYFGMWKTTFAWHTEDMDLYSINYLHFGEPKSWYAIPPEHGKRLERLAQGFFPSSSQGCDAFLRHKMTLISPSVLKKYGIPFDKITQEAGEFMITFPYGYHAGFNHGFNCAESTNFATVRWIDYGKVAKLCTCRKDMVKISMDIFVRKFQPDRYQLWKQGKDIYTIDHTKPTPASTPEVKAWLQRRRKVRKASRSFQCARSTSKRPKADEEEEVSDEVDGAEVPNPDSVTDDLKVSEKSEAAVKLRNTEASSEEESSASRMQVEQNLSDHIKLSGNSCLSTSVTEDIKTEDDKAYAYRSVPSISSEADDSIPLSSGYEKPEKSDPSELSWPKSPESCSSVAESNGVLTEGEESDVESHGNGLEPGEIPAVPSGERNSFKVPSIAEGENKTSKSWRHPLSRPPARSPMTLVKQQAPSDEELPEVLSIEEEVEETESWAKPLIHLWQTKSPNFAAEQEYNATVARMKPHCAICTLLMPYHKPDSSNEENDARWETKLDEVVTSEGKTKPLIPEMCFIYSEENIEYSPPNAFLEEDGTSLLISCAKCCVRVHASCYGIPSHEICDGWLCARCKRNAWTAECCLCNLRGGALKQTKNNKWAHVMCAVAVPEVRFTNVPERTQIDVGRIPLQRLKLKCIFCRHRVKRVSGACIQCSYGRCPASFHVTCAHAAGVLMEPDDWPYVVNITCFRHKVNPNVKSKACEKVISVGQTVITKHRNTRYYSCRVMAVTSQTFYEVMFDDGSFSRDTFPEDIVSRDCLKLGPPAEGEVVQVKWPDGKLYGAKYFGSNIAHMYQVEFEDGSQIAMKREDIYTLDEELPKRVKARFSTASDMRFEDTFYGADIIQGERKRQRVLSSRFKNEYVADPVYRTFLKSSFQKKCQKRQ
Briefly: co-IP; U2OS cells electroporated with untagged FL-JMJD2A or JMJD2A-M584 with HA-JMJD2C; lysed 48 h later in IP buffer (10 mM Tris pH 8, 0.4% NP40, 300 mM NaCl, 10% glycerol, 1 mM DTT), diluted with one volume of buffer with CaCl2 and DNase; anti-HA agarose beads overnight at 4°C; blots with antibodies against HA or JMJD2A.

The source of these data is PMC3107188.

No constants are given. Whether binding was seen depends on the method and setting. In cells and extracts the contact can be indirect. Some entries that bind do so weakly or less than the wild type. Tags and fused reporters may be left off the sequences shown.

B1: JMJD2A-M584 (N-terminal deletion mutant of JMJD2A initiating at Met584), untagged (domain or fragment, UniProt Q8BW72-1 584-1064)
chain: MLSLEENKKTKGRRQPLSKLPRHHPLVLQECGSDDETSEQLTPEEEAEETEAWAKPLSQLWQNRPPNFEAEKEFNEIMAQQAPHCAVCMIFQTYHQVEFGAFSQSCGDASEPAAQTQRTKPLIPEMCFTTTGCSTDINLSTPYLEEDGTSMLVSCKKCSVRVHASCYGVPPAKASEEWMCSRCSANALEEDCCLCSLRGGALQRANDDRWVHVSCAVAILEARFVNIAERSPVDVSKIPLPRFKLKCVFCKKRRKRNAGCCVQCSHGRCPTAFHVSCAQAAGVMMQPDDWPFVVFITCFRHKIPNLERAKGALLSITAGQKVISKHKNGRFYQCEVVRLTTETFYEVNFDDGSFSDNLYPEDIVSQDCLQLGPPAEGEVVQVRWTDGQVYGAKFVASHPIQMYQVEFEDGSQLVVKRDDVYTLDEELPKRVKSRLSVASDMRFNEIFTEKEVKQEKKRQRVINSRYREDYIEPALYRAIME
B1: the binding result is listed as “binds”.

B2: FL-JMJD2A (full-length JMJD2A/KDM4A), untagged (protein, UniProt Q8BW72-1 1-1064)
chain: MASESETLNPSARIMTFYPTMEEFRNFSRYIAYIESQGAHRAGLAKVVPPKEWKPRTSYDDIDDLVIPAPIQQLVTGQSGLFTQYNIQKKAMTVREFRKIANSDKYCTPRYSEFEELERKYWKNLTFNPPIYGADVNGTLYEQHVDEWNIGRLKTILDLVEKESGITIEGVNTPYLYFGMWKTSFAWHTEDMDLYSINYLHFGEPKSWYSVPPEHGKRLERLAKGFFPGSAQSCEAFLRHKMTLISPLMLKKYGIPFDKVTQEAGEFMITFPYGYHAGFNHGFNCAESTNFATRRWIEYGKQAVLCSCRKDMVKISMDVFVRRFQPERYKLWKAGKDSMVIDHTLPTPEAAEFLKDSGGLTPRAGSEECPEEDVEAADQGEEGDVKRSLAKHRIGTKRHRVCLEIPQEVSQSELFPKEELSSGQYEMTECPATLAPVRPTHSSVRQVEDSLPFPDYSDPTEVKFEELKNVKLEEEDEEDEPEAAALDLSVNPASVGGRLVFSGSKKKSSSSLGSTSSQDSVSSDSETAESVSCQGQEKTGVLTVHSYARGDGKAATGEPSVKKKRSAPRSISEQELAEVADEYMLSLEENKKTKGRRQPLSKLPRHHPLVLQECGSDDETSEQLTPEEEAEETEAWAKPLSQLWQNRPPNFEAEKEFNEIMAQQAPHCAVCMIFQTYHQVEFGAFSQSCGDASEPAAQTQRTKPLIPEMCFTTTGCSTDINLSTPYLEEDGTSMLVSCKKCSVRVHASCYGVPPAKASEEWMCSRCSANALEEDCCLCSLRGGALQRANDDRWVHVSCAVAILEARFVNIAERSPVDVSKIPLPRFKLKCVFCKKRRKRNAGCCVQCSHGRCPTAFHVSCAQAAGVMMQPDDWPFVVFITCFRHKIPNLERAKGALLSITAGQKVISKHKNGRFYQCEVVRLTTETFYEVNFDDGSFSDNLYPEDIVSQDCLQLGPPAEGEVVQVRWTDGQVYGAKFVASHPIQMYQVEFEDGSQLVVKRDDVYTLDEELPKRVKSRLSVASDMRFNEIFTEKEVKQEKKRQRVINSRYREDYIEPALYRAIME
On to B2, for which the binding result is reported as “binds”.
